Laboratory results taken from the supplement of paper PMC12819154, “High-throughput peptide-centric local stability assay extends protein–ligand identification to membrane proteins, tissues and bacteria” (Nature Structural & Molecular Biology, 2025).
The other results are listed elsewhere or left out. Most values lie at the level of the controls, where differences are scatter.

By UniProt entry, the sequences of proteins in these tests, tags left out. Where a name states a change or a piece, a line headed by the entry shows the natural chain unless it says otherwise.
UniProt Q92610: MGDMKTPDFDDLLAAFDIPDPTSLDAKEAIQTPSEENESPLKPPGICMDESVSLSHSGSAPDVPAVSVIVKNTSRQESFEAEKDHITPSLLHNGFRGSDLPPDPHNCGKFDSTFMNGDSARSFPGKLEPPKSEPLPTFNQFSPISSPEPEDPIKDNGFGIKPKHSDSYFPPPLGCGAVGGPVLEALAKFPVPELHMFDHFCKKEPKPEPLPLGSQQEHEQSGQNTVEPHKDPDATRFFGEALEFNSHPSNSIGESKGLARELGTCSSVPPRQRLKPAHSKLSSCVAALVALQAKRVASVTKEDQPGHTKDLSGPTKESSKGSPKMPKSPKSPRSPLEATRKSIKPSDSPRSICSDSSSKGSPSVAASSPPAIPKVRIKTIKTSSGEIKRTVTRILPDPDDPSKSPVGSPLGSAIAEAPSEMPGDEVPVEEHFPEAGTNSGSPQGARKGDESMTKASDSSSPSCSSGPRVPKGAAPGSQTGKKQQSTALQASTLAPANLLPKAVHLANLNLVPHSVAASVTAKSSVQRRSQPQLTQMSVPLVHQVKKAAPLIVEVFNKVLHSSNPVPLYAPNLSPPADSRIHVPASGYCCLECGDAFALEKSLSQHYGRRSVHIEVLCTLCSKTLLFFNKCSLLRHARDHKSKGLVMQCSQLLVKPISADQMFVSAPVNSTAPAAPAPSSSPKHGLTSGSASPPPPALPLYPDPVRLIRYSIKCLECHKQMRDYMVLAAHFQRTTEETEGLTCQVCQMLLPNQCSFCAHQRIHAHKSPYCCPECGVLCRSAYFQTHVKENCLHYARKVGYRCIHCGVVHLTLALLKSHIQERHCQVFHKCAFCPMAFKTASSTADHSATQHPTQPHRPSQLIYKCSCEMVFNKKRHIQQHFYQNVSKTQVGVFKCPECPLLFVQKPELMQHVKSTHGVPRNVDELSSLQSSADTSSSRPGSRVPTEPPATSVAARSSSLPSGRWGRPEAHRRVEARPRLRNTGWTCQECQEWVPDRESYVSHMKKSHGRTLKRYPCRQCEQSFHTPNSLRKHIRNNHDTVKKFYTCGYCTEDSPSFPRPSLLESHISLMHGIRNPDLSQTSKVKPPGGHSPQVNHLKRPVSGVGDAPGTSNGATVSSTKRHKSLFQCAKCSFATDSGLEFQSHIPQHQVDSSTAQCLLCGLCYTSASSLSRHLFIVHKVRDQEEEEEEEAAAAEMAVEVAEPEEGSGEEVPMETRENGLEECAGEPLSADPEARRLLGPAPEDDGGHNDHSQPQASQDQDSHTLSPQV
UniProt Q8WYA0: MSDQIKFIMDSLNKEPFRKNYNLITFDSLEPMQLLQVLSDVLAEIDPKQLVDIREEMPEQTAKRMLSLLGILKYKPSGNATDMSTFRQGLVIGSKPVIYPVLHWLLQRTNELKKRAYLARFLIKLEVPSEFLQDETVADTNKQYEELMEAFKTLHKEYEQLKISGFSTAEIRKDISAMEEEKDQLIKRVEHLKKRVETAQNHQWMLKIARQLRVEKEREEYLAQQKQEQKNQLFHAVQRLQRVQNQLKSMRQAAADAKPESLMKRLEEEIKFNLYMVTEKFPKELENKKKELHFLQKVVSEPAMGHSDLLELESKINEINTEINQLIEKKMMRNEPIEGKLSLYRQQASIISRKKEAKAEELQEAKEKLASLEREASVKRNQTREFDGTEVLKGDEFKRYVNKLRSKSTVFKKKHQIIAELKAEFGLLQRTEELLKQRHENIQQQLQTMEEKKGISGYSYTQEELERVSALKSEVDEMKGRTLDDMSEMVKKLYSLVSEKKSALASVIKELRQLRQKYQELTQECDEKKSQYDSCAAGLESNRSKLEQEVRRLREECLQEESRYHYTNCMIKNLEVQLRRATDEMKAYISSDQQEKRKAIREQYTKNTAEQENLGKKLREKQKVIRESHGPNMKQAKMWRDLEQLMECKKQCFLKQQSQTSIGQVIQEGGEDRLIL
UniProt Q8WV60: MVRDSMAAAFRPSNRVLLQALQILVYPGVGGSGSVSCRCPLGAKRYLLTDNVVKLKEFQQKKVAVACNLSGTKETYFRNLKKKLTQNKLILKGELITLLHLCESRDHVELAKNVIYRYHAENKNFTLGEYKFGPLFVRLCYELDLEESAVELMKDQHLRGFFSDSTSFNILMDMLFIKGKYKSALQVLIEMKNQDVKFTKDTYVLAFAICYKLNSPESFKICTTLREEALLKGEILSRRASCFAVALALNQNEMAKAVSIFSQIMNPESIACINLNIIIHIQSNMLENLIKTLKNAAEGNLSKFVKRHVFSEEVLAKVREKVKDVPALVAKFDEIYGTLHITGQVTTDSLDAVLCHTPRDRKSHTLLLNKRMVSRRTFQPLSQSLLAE
UniProt Q8TCF1: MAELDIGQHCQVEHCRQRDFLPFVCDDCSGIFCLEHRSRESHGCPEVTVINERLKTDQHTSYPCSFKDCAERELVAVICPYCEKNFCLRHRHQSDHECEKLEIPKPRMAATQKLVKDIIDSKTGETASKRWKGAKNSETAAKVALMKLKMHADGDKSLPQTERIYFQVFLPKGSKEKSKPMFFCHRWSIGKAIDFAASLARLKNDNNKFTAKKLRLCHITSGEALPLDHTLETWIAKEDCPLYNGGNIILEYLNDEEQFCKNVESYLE
UniProt Q8TEX9: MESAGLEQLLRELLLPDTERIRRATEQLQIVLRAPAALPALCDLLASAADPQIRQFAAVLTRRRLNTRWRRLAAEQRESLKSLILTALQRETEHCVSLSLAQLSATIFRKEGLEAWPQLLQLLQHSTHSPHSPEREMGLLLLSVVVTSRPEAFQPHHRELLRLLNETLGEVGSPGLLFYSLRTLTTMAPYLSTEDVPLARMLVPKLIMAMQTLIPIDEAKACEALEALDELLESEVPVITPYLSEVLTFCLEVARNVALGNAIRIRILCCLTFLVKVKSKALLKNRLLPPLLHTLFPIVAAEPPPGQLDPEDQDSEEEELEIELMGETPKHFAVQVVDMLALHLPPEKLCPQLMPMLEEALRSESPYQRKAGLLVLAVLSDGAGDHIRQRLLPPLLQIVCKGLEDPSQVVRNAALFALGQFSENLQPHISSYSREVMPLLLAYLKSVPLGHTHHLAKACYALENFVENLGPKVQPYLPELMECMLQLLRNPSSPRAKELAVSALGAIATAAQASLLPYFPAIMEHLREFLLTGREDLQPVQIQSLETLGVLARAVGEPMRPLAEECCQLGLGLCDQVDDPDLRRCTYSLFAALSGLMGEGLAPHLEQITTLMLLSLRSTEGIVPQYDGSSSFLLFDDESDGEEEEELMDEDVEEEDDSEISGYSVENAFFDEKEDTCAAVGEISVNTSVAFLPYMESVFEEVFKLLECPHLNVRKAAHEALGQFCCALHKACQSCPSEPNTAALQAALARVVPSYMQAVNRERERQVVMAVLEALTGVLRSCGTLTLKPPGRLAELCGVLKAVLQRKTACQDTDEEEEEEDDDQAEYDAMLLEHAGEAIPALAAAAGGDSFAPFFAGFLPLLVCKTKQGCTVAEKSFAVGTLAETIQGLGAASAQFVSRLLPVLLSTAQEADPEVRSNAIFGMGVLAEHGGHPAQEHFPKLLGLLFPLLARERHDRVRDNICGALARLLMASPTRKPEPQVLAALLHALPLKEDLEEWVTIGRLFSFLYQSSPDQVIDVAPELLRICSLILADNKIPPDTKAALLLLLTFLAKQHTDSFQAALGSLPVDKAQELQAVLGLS
UniProt Q8TE04: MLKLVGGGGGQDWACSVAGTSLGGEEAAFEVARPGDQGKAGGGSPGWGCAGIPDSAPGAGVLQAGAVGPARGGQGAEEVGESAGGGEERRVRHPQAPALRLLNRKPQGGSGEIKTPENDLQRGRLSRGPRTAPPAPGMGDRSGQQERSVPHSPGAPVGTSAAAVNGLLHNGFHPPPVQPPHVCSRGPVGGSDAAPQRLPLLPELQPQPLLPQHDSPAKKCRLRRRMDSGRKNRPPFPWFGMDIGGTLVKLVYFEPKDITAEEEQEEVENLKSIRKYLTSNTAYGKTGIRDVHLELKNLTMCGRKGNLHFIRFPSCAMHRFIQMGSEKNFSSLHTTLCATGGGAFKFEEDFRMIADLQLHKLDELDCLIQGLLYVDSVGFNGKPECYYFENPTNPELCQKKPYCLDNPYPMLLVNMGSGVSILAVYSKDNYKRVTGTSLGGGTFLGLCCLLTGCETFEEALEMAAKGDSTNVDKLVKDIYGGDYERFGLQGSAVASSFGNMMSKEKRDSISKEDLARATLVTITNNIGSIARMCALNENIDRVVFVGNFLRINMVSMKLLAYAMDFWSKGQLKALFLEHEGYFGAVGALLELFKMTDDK
UniProt Q92614: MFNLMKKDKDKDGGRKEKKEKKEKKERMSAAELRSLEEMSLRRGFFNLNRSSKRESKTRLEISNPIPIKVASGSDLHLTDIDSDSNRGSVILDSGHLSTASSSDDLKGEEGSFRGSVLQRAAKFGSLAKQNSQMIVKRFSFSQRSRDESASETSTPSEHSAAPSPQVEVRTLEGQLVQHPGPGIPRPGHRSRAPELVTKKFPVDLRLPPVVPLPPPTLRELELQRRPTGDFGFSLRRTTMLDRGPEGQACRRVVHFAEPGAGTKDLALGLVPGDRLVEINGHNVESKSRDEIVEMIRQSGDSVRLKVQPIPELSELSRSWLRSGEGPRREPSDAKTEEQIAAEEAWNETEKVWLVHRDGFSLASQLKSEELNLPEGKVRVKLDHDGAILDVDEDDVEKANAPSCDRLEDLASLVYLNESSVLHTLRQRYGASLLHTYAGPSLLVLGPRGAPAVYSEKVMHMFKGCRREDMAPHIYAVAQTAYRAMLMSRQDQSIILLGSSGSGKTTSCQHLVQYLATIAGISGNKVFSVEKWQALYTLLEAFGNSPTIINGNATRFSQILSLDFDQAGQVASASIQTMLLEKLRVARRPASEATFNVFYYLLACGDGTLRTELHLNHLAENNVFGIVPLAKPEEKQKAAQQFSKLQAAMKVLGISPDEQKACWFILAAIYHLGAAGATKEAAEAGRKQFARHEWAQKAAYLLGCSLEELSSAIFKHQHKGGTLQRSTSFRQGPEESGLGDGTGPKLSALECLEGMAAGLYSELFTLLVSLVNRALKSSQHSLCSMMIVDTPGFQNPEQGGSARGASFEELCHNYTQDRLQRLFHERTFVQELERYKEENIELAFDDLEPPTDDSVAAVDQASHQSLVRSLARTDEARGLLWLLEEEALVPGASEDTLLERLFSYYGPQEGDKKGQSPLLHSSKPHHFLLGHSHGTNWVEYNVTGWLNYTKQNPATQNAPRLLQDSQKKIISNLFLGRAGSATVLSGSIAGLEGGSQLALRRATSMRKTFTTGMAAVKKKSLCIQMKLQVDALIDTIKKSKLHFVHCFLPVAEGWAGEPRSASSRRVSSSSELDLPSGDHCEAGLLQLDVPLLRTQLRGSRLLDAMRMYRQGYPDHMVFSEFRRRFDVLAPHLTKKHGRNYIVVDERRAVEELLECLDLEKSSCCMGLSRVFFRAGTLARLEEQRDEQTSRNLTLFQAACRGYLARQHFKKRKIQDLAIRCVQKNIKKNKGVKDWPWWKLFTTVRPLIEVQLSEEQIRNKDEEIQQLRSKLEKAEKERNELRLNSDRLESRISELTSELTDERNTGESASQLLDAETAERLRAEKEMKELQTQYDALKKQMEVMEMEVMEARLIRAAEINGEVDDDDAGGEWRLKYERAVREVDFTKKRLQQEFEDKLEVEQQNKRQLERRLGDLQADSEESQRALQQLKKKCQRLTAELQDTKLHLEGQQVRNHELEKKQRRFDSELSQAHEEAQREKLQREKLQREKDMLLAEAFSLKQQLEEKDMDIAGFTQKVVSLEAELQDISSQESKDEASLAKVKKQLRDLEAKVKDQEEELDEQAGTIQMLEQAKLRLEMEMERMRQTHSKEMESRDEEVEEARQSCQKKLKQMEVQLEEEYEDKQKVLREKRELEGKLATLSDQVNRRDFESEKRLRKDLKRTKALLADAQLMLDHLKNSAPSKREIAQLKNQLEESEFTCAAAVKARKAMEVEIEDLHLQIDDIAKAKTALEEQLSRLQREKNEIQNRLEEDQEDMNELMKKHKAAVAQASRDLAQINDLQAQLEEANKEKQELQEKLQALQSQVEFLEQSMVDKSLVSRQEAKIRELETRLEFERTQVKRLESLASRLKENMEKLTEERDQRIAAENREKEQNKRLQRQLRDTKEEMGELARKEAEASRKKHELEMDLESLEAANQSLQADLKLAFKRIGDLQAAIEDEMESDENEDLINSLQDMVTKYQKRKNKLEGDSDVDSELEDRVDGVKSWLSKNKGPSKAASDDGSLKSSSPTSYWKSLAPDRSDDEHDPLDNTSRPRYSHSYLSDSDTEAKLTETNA

The targets below were run with CN[C@@H]1C[C@H]2O[C@@](C)([C@@H]1OC)n1c3ccccc3c3c4c(c5c6ccccc6n2c5c31)C(=O)NC4 [staurosporine] (assay: log2 fold change of tryptic peptide abundance, ligand vs vehicle (limited proteolysis) (log2 ratio); higher = more trypsin-susceptible (destabilized)). Conditions: ligand concentration: 20 uM; sample: K562 cleared lysate; digestion: 4 min, 22 C (HT-PELSA RT4min, Orbitrap Astral).

Which log2 fold change does the source give for “ZNF592 (peptide sequence: RSQPQLTQMSVPLVHQVK, peptide start residue: 528) (UniProt Q92610)” here?
The log2 fold change was 0.799.

How did the log2 fold change turn out when “IFT81 (peptide sequence: SKLEQEVR, peptide start residue: 544) (UniProt Q8WYA0)” was run?
The log2 fold change was 0.342.

How did the log2 fold change turn out when “PTCD2 (peptide sequence: NFTLGEYK, peptide start residue: 124) (UniProt Q8WV60)” was run?
The log2 fold change was 0.685.

With “DMXL2 (peptide sequence: GDPQWSELR, peptide start residue: 1623) (UniProt Q8TDJ6)” as the target, how does the log2 fold change read?
Its log2 fold change is -0.246.

How did the log2 fold change turn out when “ZFAND1 (peptide sequence: LKMHADGDKSLPQTER, peptide start residue: 148) (UniProt Q8TCF1)” was run?
Its log2 fold change is 0.976.

With “IPO4 (peptide sequence: SVPLGHTHHLAK, peptide start residue: 446) (UniProt Q8TEX9)” as the target, how does the log2 fold change read?
The log2 fold change was 0.296.

For “PANK1 (peptide sequence: GPVGGSDAAPQR, peptide start residue: 186) (UniProt Q8TE04)”, which log2 fold change is on record?
The log2 fold change was 0.0868.

How did the log2 fold change turn out when “MYO18A (peptide sequence: EKNEIQNR, peptide start residue: 1740) (UniProt Q92614)” was run?
The log2 fold change was 0.706.
